Experimental findings from patent US7186830B2, “Tricyclic 2-pyrimidone compounds useful as HIV reverse transcriptase inhibitors” (Bristol-Myers Squibb Company, priority 2002, dated 2007) are described below.

For the assay, the system named is HIV-1 (RF). As to the kind of experiment: HIV RNA assay: microplate based compound evaluation in HIV-1 infected MT-2 cells. In kind it is cell-based. Particulars: Human immunodeficiency virus 1, MT2, 72 h; HIV-1 (RF) infected MT-2 cells, 3 days of culture; value used to standardize the virus inoculum; read-out: IC90 (concentration of compound required to reduce the HIV RNA level by 90%). As to the method: MT-2 and MT-4 cells were maintained in RPMI 1640 supplemented with 5% fetal calf serum (FCS) for MT-2 cells or 10% FCS for MT-4 cells, 2 mM L-glutamine and 50 μg/mL gentamycin, all from Gibco. HIV-1 RF was propagated in MT-4 cells in the same medium. Virus stocks were prepared approximately 10 days after acute infection of MT-4 cells and stored as aliquots at −70° C. Infectious titers of HIV-1(RF) stocks were 1–3×10^7 PFU (plaque forming units)/mL as measured by plaque assay on MT-2 cells (see below). Each aliquot of virus stock used for infection was thawed only once.
For evaluation of antiviral efficacy, cells to be infected were subcultured one day prior to infection. […]
Cell lysates or purified RNA in 3 M or 5 M GED were mixed with 5 M GED and capture probe to a final guanidinium isothiocyanate concentration of 3 M and a final biotin oligonucleotide concentration of 30 nM. […] Immobilized alkaline phosphatase activity was detected by addition of 100 μL of 0.2 mM 4-methylumbelliferyl phosphate (MUBP, JBL Scientific) in buffer (2.5 M diethanolamine pH 8.9 (JBL Scientific), 10 mM MgCl2, 5 mM zinc acetate dihydrate and 5 mM N-hydroxyethyl-ethylene-diamine-triacetic acid). […] Fluorescence at […] was measured using a microplate fluorometer (Dynateck) exciting at 365 nM. […]

Converted amounts (≈) assume the structure as drawn.

Turning to `Nc1ccn([C@H]2CC[C@@H](CO)O2)c(=O)n1` [ddC, 2′,3′-dideoxycytidine], the IC90 came to 0.2 µg/mL (≈ 0.947 µM).
